# Measurements reported in PubChem BioAssay AID493246 (Drosophila RNAi Screening Center, 2011)
# Aim: 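Genome-wide search for dsRNAs that reduce cell number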 (primary screen)
# System: Drosophila Kc and S2R+ cells
# Reagent: long dsRNA against Drosophila genes
# Measured: 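Cell number per well after knock-down, printed as raw plate values; calls were based on per-plate z-scores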
# Direction: Kc cell number and S2R+ cell number: higher = more cells remaining
# Rule for the call: 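Active when the per-plate z-score of cell number is 3 or more in the direction of fewer cells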
# In all, the deposit lists about 21,000 reagents; shown is an unselected part of those with a known target gene and a result. Over the whole deposit, 429 (2%) got an active call. 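Values are raw and not normalised between plates; calls rest on per-plate z-scores that were not deposited.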 Entries without a mark were called inactive. A plus sign joins genes that one reagent is predicted to hit. Reagent sequences are not shown. The record does not give: the amount of reagent, the time to read-out.
predicted target,amplicon,"Kc cell number, rep 1","Kc cell number, rep 2","S2R+ cell number, rep 1","S2R+ cell number, rep 2"
tara (GeneID 53562),DRSC17076,1.25e6,1.21e6,1.17e6,1.28e6
ppk28 (GeneID 32671),DRSC19919,1.46e6,1.42e6,1.04e6,1.07e6
CG8617 (GeneID 36594),DRSC07223,1.48e6,1.46e6,1.14e6,1.27e6
Shrm (GeneID 36592),DRSC06437,1.49e6,1.54e6,1.19e6,1.22e6
Shrm (GeneID 36592),DRSC06438,1.53e6,1.48e6,1.13e6,1.15e6
Shrm (GeneID 36592),DRSC07221,1.43e6,1.45e6,1.16e6,1.24e6
CG42493 (GeneID 8674013),DRSC05309,1.23e6,1.21e6,9.58e5,1.10e6
CG8303 (GeneID 36858),DRSC07140,1.56e6,1.60e6,1.15e6,1.28e6
CG33969 + fbl,DRSC11886,1.34e6,1.46e6,1.26e6,1.33e6
dnk (GeneID 42273),DRSC16933,1.25e6,1.33e6,8.87e5,9.65e5
Rpt5 (GeneID 42805),DRSC16842,8.04e5 (active),1.07e6,7.63e5,9.07e5
CNT2 (GeneID 35914),DRSC07073,1.33e6,1.32e6,1.11e6,1.24e6
PolH (GeneID 40438),DRSC11800,1.67e6,1.73e6,1.20e6,1.24e6
CG42824 + CG42823,DRSC13230,1.47e6,1.50e6,1.01e6,1.13e6
CSN5 (GeneID 42000),DRSC16592,1.74e6,1.74e6,1.26e6,1.23e6
CG10026 (GeneID 35226),DRSC02010,1.87e6,1.99e6,1.32e6,2.74e5
Ir20a (GeneID 33126),DRSC20506,1.47e6,1.50e6,1.01e6,1.12e6
CG15185 (GeneID 40798),DRSC12565,1.48e6,1.61e6,1.19e6,1.23e6
BubR1 (GeneID 35522),DRSC04838,1.49e6,1.54e6,1.04e6,1.24e6
CG15877 (GeneID 38304),DRSC08485,1.43e6,1.33e6,9.97e5,1.23e6
Try29F (GeneID 34226),DRSC03466,1.58e6,1.78e6,1.36e6,1.54e6
Met (GeneID 32114),DRSC20284,1.50e6,1.47e6,1.02e6,1.15e6
Gasz (GeneID 35795),DRSC06829,1.37e6,1.45e6,1.08e6,1.15e6
Polr2A (GeneID 32100),DRSC20280,4.40e5,,5.86e5,
pot (GeneID 32154),DRSC19850,7.15e5,,9.20e5,
Nepl4 (GeneID 33889),DRSC03239,1.33e6,1.37e6,6.28e5,6.94e5
CG17598 (GeneID 33140),DRSC20636,1.53e6,1.60e6,1.10e6,1.22e6
GlcAT-S (GeneID 34282),DRSC02731,1.27e6,1.34e6,1.12e6,1.21e6
cv-d (GeneID 41921),DRSC16522,1.52e6,1.60e6,1.16e6,1.26e6
cv-d (GeneID 41921),DRSC16524,1.45e6,1.49e6,9.59e5,1.08e6
cv-d (GeneID 41921),DRSC16526,1.27e6,1.35e6,1.07e6,1.21e6
CG17154 (GeneID 39373),DRSC10253,1.39e6,1.26e6,1.29e6,1.37e6
CG14830 (GeneID 38800),DRSC08876,1.79e6,1.76e6,1.25e6,1.40e6
CG14830 (GeneID 38800),DRSC10200,1.49e6,1.38e6,1.02e6,1.16e6
Sgf29 (GeneID 37429),DRSC04076,1.36e6,1.47e6,1.21e6,1.28e6
LysX (GeneID 38122),DRSC08678,1.36e6,1.40e6,9.80e5,1.26e6
Dpy-30L2 (GeneID 38480),DRSC08205,1.19e6,1.36e6,1.08e6,1.21e6
mRpL3 (GeneID 32523),DRSC20100,1.44e6,1.42e6,9.78e5,1.04e6
r (GeneID 32640),DRSC19813,1.48e6,1.45e6,1.08e6,1.14e6
r (GeneID 32640),DRSC19814,1.43e6,1.47e6,1.03e6,1.08e6
CG34353 (GeneID 5740590),DRSC14493,1.66e6,1.72e6,1.05e6,1.17e6
CG34353 (GeneID 5740590),DRSC14517,1.55e6,1.65e6,1.03e6,1.15e6
CG34353 (GeneID 5740590),DRSC14563,1.65e6,1.72e6,1.03e6,1.18e6
CG34353 (GeneID 5740590),DRSC15837,1.55e6,1.58e6,9.79e5,1.14e6
iav (GeneID 31621),DRSC18363,1.62e6,1.59e6,1.01e6,1.18e6
mRpL21 (GeneID 40091),DRSC11100,1.40e6,1.41e6,1.09e6,1.18e6
nej (GeneID 43856),DRSC18006,1.42e6,1.40e6,8.20e5,8.46e5
nej (GeneID 43856),DRSC18801,3.24e5 (active),,5.31e5,
Pld (GeneID 35554),DRSC04854,1.29e6,1.38e6,1.18e6,1.20e6
Dsor1 (GeneID 31872),DRSC18462,6.38e5,,8.45e5,
CG33702 (GeneID 3771932),DRSC08986,1.49e6,1.64e6,1.15e6,1.32e6
CG15406 (GeneID 33542),DRSC00420,1.57e6,1.56e6,1.08e6,1.23e6
CG7656 (GeneID 39691),DRSC10900,1.93e6,1.97e6,1.29e6,1.36e6
ClpX (GeneID 42369),DRSC15592,1.74e6,1.84e6,1.33e6,1.33e6
D1 (GeneID 41095),DRSC16638,1.53e6,1.62e6,1.22e6,1.28e6
FASN3 (GeneID 3355111),DRSC20882,1.52e6,1.53e6,1.11e6,1.24e6
CG10341 (GeneID 35125),DRSC02040,1.28e6,1.33e6,1.25e6,1.31e6
ds (GeneID 33245),DRSC00815,1.47e6,1.54e6,1.05e6,1.17e6
CG7600 (GeneID 39267),DRSC09681,1.48e6,1.54e6,1.18e6,1.09e6
Axud1 (GeneID 33419),DRSC00270,1.35e6,1.45e6,1.04e6,1.14e6
Rab3-GEF (GeneID 32442),DRSC19954,1.58e6,1.59e6,1.17e6,1.26e6
Rab3-GEF (GeneID 32442),DRSC19955,1.53e6,1.52e6,1.16e6,1.26e6
Rab3-GEF (GeneID 32442),DRSC19956,1.44e6,1.47e6,9.14e5,1.00e6
CG2750 (GeneID 32179),DRSC19867,1.67e6,1.82e6,1.11e6,1.36e6
CG13108 (GeneID 34240),DRSC02206,1.58e6,1.68e6,1.10e6,1.23e6
eIF2Balpha (GeneID 43549),DRSC16332,5.11e5,,8.51e5,
Mdr49 (GeneID 36428),DRSC07466,1.18e6,1.49e6,8.88e5,8.93e5
CG13727 (GeneID 39931),DRSC10055,1.45e6,1.46e6,1.22e6,1.34e6
mei-S332 (GeneID 37523),DRSC04704,1.35e6,1.35e6,9.69e5,9.96e5
Nsun5 (GeneID 7354421),DRSC15835,1.57e6,1.66e6,1.27e6,1.28e6
CstF50 (GeneID 43734),DRSC15434,4.91e5,,7.77e5,
CG44422 (GeneID 32063),DRSC18885,1.49e6,1.77e6,1.18e6,1.28e6
CG44422 (GeneID 32063),DRSC19380,1.91e6,1.82e6,1.12e6,1.28e6
CG44422 (GeneID 32063),DRSC19480,1.74e6,1.77e6,1.03e6,1.23e6
CG12842 (retired record) (GeneID 35619),DRSC06188,1.53e6,1.55e6,1.26e6,1.37e6
